Experimental data: PubChem BioAssay AID1053208 (Peter MacCallum Cancer Centre, 2014)

- Test: 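Find knock-downs that sensitise mouse osteosarcoma cells to doxorubicin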 (primary screen)
- System: mouse osteosarcoma cells, early-passage culture from an engineered mouse model of fibroblastic bone tumour
- Knock-down reagent: siRNA pool against mouse genes, 40 nM
- Time to read-out: about 120 h (48 h before drug, then 72 h with drug)
- Conditions: doxorubicin 100 nM for 72 h, roughly 30-40% inhibitory dose
- Measured: 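Luminescent ATP signal taken as viability with or without 100 nM doxorubicin for 72 h; mean of two wells set against non-targeting siRNA and turned into robust z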
- Direction: viability z-score with doxorubicin: higher = more viable cells under doxorubicin; viability z-score without drug: higher = more viable cells with knock-down alone
- Hit rule: 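Called active if knock-down leaves viability unchanged without drug (z within -2 to 2) but lowers it with doxorubicin (z at or under -2)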
In all, the deposit lists about 17,000 reagents; shown is an unselected part. 788 of all reagents (4.7%) count as active. 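Calls rest on z-score classes alone; an extra cut-off of viability at most 70% of control was not applied to them.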 The numbers tell different reagents against one gene apart. Further read-outs or replicates are left out here.

no.	gene knocked down	reagent no.	combined z-score class	viability z-score with doxorubicin	viability z-score without drug	outcome
1	Elovl2 (ELOVL fatty acid elongase 2)	1	no change with or without drug	-0.34	0.67	inactive
2	Snrpb2 (U2 small nuclear ribonucleoprotein B)	1	no change with or without drug	1.01	-0.51	inactive
3	Tspan10 (tetraspanin 10)	1	no change with or without drug	1.12	0.51	inactive
4	Mrpl52 (mitochondrial ribosomal protein L52)	1	low cell count with and without drug	-2.25	-2.53	inactive
5	Or2aj6 (olfactory receptor family 2 subfamily AJ member 6)	1	no change with or without drug	-0.11	-0.51	inactive
6	Epgn (epithelial mitogen)	1	low cell count with doxorubicin only	-2.25	-0.51	active
7	Ifrd1 (interferon-related developmental regulator 1)	1	no change with or without drug	-0.56	0.51	inactive
8	Edrf1 (erythroid differentiation regulatory factor 1)	1	no change with or without drug	0.79	1.18	inactive
9	Cmtm2b (CKLF-like MARVEL transmembrane domain containing 2B)	1	no change with or without drug	-0.9	-1.01	inactive
10	Mybpc3 (myosin binding protein C, cardiac)	1	no change with or without drug	0.67	1.18	inactive
11	Arhgap44 (Rho GTPase activating protein 44)	1	no change with or without drug	-0.67	-0.34	inactive
12	Lgr4 (leucine-rich repeat-containing G protein-coupled receptor 4)	1	no change with or without drug	-0.67	-0.17	inactive
13	Specc1l	1	no change with or without drug	-0.34	-1.52	inactive
14	Cenpi (centromere protein I)	1	no change with or without drug	-0.67	-0.34	inactive
15	Zfp57 (zinc finger protein 57)	1	high cell count without drug only	1.12	2.53	inactive
16	1700019M22Rik (RIKEN cDNA 1700019M22 gene)	1	no change with or without drug	-0.45	0.84	inactive
17	Tmem59l (transmembrane protein 59-like)	1	no change with or without drug	-0.22	0.51	inactive
18	Fabp7 (fatty acid binding protein 7, brain)	1	no change with or without drug	-1.57	-0.51	inactive
19	Laptm4b (lysosomal-associated protein transmembrane 4B)	1	no change with or without drug	0.34	1.85	inactive
20	Syn1 (synapsin I)	1	no change with or without drug	1.35	-0.34	inactive
21	Tmem18 (transmembrane protein 18)	1	no change with or without drug	0.67	-0.51	inactive
22	Arhgef6 (Rac/Cdc42 guanine nucleotide exchange factor 6)	1	no change with or without drug	-0.79	1.18	inactive
23	Gdf1 (growth differentiation factor 1)	1	no change with or without drug	1.12	0.17	inactive
24	Arf3 (ARF GTPase 3)	1	low cell count with doxorubicin only	-2.02	-0.84	active
25	2210408I21Rik (RIKEN cDNA 2210408I21 gene)	1	high cell count with doxorubicin only	2.59	1.35	inactive
26	Fn3k (fructosamine 3 kinase)	1	no change with or without drug	0.11	-0.84	inactive
27	3010003L21Rik (RIKEN cDNA 3010003L21 gene)	1	no change with or without drug	1.8	0.34	inactive
28	Arhgef38 (Rho guanine nucleotide exchange factor 38)	1	no change with or without drug	-0.9	-0.17	inactive
29	Slc5a7	1	low cell count with doxorubicin only	-2.02	0.67	active
30	Dcun1d1 (defective in cullin neddylation 1 domain containing 1)	1	no change with or without drug	-1.8	-1.85	inactive
31	Aoc1l2 (amine oxidase copper containing 1-like 2)	1	no change with or without drug	1.12	0.84	inactive
32	Pigq (phosphatidylinositol glycan anchor biosynthesis, class Q)	1	no change with or without drug	-0.11	0.67	inactive
33	Sytl4 (synaptotagmin-like 4)	1	low cell count with doxorubicin only	-2.02	-0.17	active
34	Ralgds (ral guanine nucleotide dissociation stimulator)	1	no change with or without drug	0.9	-0.34	inactive
35	Mob3a (MOB kinase activator 3A)	1	no change with or without drug	0.22	-0.34	inactive
36	Tmpo (thymopoietin)	1	no change with or without drug	0	-0.51	inactive
37	Mixl1 (Mix paired-like homeobox)	1	no change with or without drug	-0.45	1.85	inactive
38	Igf2bp2 (insulin-like growth factor 2 mRNA binding protein 2)	1	no change with or without drug	0.67	0.67	inactive
39	Scube2 (signal peptide, CUB domain, EGF-like 2)	1	no change with or without drug	-1.57	-0.84	inactive
40	Cavin3 (caveolae associated 3)	1	no change with or without drug	1.57	0.51	inactive
41	H2-Aa (histocompatibility 2, class II antigen A, alpha)	1	no change with or without drug	1.12	0.51	inactive
42	Pamr1	1	no change with or without drug	-1.01	0.17	inactive
43	Oosp1 (oocyte secreted protein 1)	1	no change with or without drug	0.34	0.84	inactive
44	Hnf4a (hepatic nuclear factor 4, alpha)	1	no change with or without drug	0.79	0.17	inactive
45	Serpind1 (serine (or cysteine) peptidase inhibitor, clade D, member 1)	1	no change with or without drug	0	1.52	inactive
46	Phf11a (PHD finger protein 11A)	1	low cell count with doxorubicin only	-2.81	-1.52	active
47	Rab24 (RAB24, member RAS oncogene family)	1	no change with or without drug	-0.11	0.67	inactive
48	Mgat4b (mannoside acetylglucosaminyltransferase 4, isoenzyme B)	1	no change with or without drug	-0.45	-0.51	inactive
49	Cd34 (CD34 antigen)	1	no change with or without drug	-1.57	0.17	inactive
50	Heg1 (heart development protein with EGF-like domains 1)	1	no change with or without drug	1.35	0.17	inactive
51	Heg1 (heart development protein with EGF-like domains 1)	2	no change with or without drug	0.45	0.51	inactive

In a second layout: entries from further up
{"gene knocked down":"Cavin3 (caveolae associated 3)","reagent no.":1,"combined z-score class":"no change with or without drug","viability z-score with doxorubicin":1.57,"viability z-score without drug":0.51,"outcome":"inactive"}
{"gene knocked down":"H2-Aa (histocompatibility 2, class II antigen A, alpha)","reagent no.":1,"combined z-score class":"no change with or without drug","viability z-score with doxorubicin":1.12,"viability z-score without drug":0.51,"outcome":"inactive"}
{"gene knocked down":"Pamr1","reagent no.":1,"combined z-score class":"no change with or without drug","viability z-score with doxorubicin":-1.01,"viability z-score without drug":0.17,"outcome":"inactive"}
{"gene knocked down":"Oosp1 (oocyte secreted protein 1)","reagent no.":1,"combined z-score class":"no change with or without drug","viability z-score with doxorubicin":0.34,"viability z-score without drug":0.84,"outcome":"inactive"}
{"gene knocked down":"Hnf4a (hepatic nuclear factor 4, alpha)","reagent no.":1,"combined z-score class":"no change with or without drug","viability z-score with doxorubicin":0.79,"viability z-score without drug":0.17,"outcome":"inactive"}
{"gene knocked down":"Serpind1 (serine (or cysteine) peptidase inhibitor, clade D, member 1)","reagent no.":1,"combined z-score class":"no change with or without drug","viability z-score with doxorubicin":0,"viability z-score without drug":1.52,"outcome":"inactive"}
